Test results reported in paper PMC4354014.
No constants are given. Whether binding was seen depends on the method and setting. Some binding calls cover weakened binding; strength is not graded here.

Target: T1, CD25, the α-chain of the IL-2 receptor (mouse, on CTLL-2 cells) (mouse (endogenous in CTLL-2)) (UniProt P01590)
T1 sequence: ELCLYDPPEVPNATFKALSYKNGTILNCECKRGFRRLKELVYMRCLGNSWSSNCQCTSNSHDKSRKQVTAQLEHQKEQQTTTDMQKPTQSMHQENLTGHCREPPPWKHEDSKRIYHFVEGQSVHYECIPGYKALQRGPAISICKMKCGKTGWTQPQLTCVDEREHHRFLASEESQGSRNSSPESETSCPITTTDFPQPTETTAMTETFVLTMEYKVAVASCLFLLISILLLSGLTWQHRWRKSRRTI
Test: flow cytometry on cells; 1 x 10^5 CTLL-2 or CTLL-2^ARTC2.2 cells with 5 ng biotinylated IL-2 in 100 μl PBS, 0.1% BSA, 60 min at 4°C, then APC-conjugated streptavidin; parallel aliquots pre-incubated with or without 500 ng unlabeled mIL-2 or 50 μM NAD+; only the binder purified

binding: binds
B1: unlabeled mouse IL-2 (ligand, UniProt P04351 21-169)
chain: APTSSSTSSSTAEAQQQQQQQQQQQQHLEQLLMDLQELLSRMENYRNLKLPRMLTFKFYLPKQATELKDLQCLEDELGPLRHVLDLTQSKSFQLEDAENFISNIRVTVVKLKGSDNTFECQFDDESATVVDFLRRWIAFCQSIISTSPQ
